Source: patent US20220354791A1, “MESOPOROUS POLYMERIC PARTICULATE MATERIAL” (Aston University, priority 2019, published 2022)

Test: Dissolution testing of FURO-loaded mesoporous particles (USP I rotating basket)
Type: physicochemical
Conditions: after 120 mins; HCl-NaCl pH 3.0 medium + 0.25% SLS, 900 mL, 37° C., 100 rpm, 40 mg FURO in HPMC capsule
Method: Testing conditions: HCL-NaCl medium pH 3+0.25% SLS, 900 mL, USP apparatus 1 (rotating basket), 100 rpm, HPLC method (mobile phase: pH 3 phosphate buffer:acetonitrile (60:40); column: C18, 15 cm×4.6 mm, 5 μm; flow rate: 1 mL/min; injection volume: 10 μL; detector: UV, 234 nm).
Dissolution testing of FURO-loaded mesoporous particles as prepared in Example 5 was performed by using USP I apparatus (rotating basket, 100 rpm) in an Erweka DT 126 dissolution tester. Samples containing 40 mg FURO were loaded into a HPMC hard-shell capsule and tested in 900 mL of HCl—NaCl pH 3.0 medium with 0.25% SLS at 37° C. The concentrations of dissolved FURO were determined using a HPLC method with mobile phase of phosphate buffer pH 3: acetonitrile (60:40), C18 column (15 cm×4.6 mm, 5 μm), column temperature of 35° C., flow rate of 1 mL/min, injection volume of 10 μL, and UV detector at 234 nm in an Agilent 1200 HPLC system.

## NS(=O)(=O)c1cc(C(=O)O)c(NCc2ccco2)cc1Cl [Furosemide raw material, Furosemide]
  Furosemide dissolution rate: 65.3%
